This is one part of the list.

This test deals with KLF4 + histone octamer. Nature of the test: EMSA with sequencing. The conditions noted are these: 10 mM Tris-Cl pH 7.5, 50 mM NaCl, 1 mM DTT, 0.25 mg/ml BSA, 2 mM MgCl2, 0.025% Nonidet P-40, 5% glycerol; 28 nM nucleosome library; 10 min on ice then 30 min …; high values mean tight binding; double strand, one strand shown. In general terms: A gel shift assay detects complexes by their altered migration in electrophoresis.
Turning to “GATGGACCCTATACGCGGCGGCCTGGACCCAACCCGAAACTCAACAAGCAGCAGCCTGGCCGTGGTGCCTCAAGCCAGCCACTAGAGGGTGCAGTTGAGCTGTCAGCCTGCCTGGAGGGGCGAGGTGGTGGGGGTGAGTGTGCAGGCGTGTGTGTGTGTGTGTGTGTGTGTGCGCGCGCGCGCGCGCCTGTGTGTGGGCGTGTTGTGTGCTGCCAGTCGGATAGTGTTCC”, the binding signal (log2 relative supershift) was determined as 1.32. The figure for “GATGGACCCTATACGCGGCCAATAAGGGTGGTCTGGTGCCTTGCTCCAAAAGGCCTTATCAGTAGACCTGAGACGATGGGCTGGGTTGTCTTCATTAACCTCTGAAAGCATGCCTGGGGAAGAAGGGACCAGCCTGGGCTCCGAAGGCCTCCTCAGAACAAGACCCTGCTTGTCCAAGTGCCTCACTCCCGGGTGGCTTGATTTCCAGGATGCCAGTCGGATAGTGTTCC” is 2.06; for “GATGGACCCTATACGCGGCTTCTCTTTCTCCCTGCCTCCACCAGCCCAGACCCCACCCCACCTCCTGTAAACCAGGGGCAGCAGGGGAGGGACGCTTTGCAGAGCAGTGCAAGTACAGACAAGTGCGTCGCTGAATCTGTGATCAGTGCTGGGGGCCCCTCAGGGCTGCCTGTACCTGGGTGGGGTGGGACATCACCAGCCCATAGCCCATGCCAGTCGGATAGTGTTCC” it is 3.69.

On to “GATGGACCCTATACGCGGCTGAAATTTTCCAGAGTTGCTCGGGGATGTCACTCGAATGGAACATTTGGGAGACTGCCAAGACCCATTTGTCAGCATGTACAGGCCTGCCCTGAGAGACCACAAATGATGGGAACTCTTGAAAGGTCTAGGGCAGTAGCCTCCAAGATAGGTCACTCCTATTCCCTGGATTCACAGCCAGCAAGAGCAGTATGCCAGTCGGATAGTGTTCC”, for which the binding signal (log2 relative supershift) is 0.953. For “GATGGACCCTATACGCGGCCCCCAGACCAAGGGCCAACAGGCCCCAGCCTGTACCTCTCAGCTGGGTCCCAGTGAACTTGGGCCTCCAAGGGGCCTTCCCCAGGCACCAGGGGAGGGCAGAGGGCAGGGCTGGGCCTGGACTTGCAGGATGCTCAACAGAGTTTGCCCTACCTAATTCCCACACCCCTCCTCTTGTACTCTTTCCCATCTTGCCAGTCGGATAGTGTTCC” the value was 2.27. With “GATGGACCCTATACGCGGCAGAGAGCCCAAGACTAGAAATGCCCATATCTTCCCATGGAAAGTGTTCCTCTGATAGGCGGGAGACAGAGGACCAAATTGCAAGTTACAACCTGCAGCCTGGGAGTTTCAGGGGCTTCAACACCAAATGAAATTGGAGAACTATCAACAGGATTCAGGGTTCAGCACAGGCTCCAGCAAGACAGAGAGAAATGCCAGTCGGATAGTGTTCC”, the binding signal (log2 relative supershift) was determined as 1.83. As for “GATGGACCCTATACGCGGCGAGGAAGAGTCCCAGGGTGATGAGGGTGAGGGTGTGTTCCCTCCCACAATTAATGCCATCACAGTGAGATCTGCCTAATAATAGGATCTCCAGACCCCAGCAAATTGTCTGCTGATCTCAGGCAATGTTTGTCTGTAAGAATCCTTCGCCCTGTGTAAACATTTTATTAGACCATTAAGTTGCCGTCAGCCTGCCAGTCGGATAGTGTTCC”, the binding signal (log2 relative supershift) worked out at 1.73.

As for “GATGGACCCTATACGCGGCGGGTCCCCAGAGAATCTCCAGGCACACAAGTGTCTACCACAGATAAAACATCTGGTGCAGATAAGGGAACCTGCACAGGGGCTTGCCTGGACATGCCAGCAGCAGACTGGAGGCCCACATGCACTGGGGAGCTGGGGTGGAGCCACCAAGAATTCATGCCTTATGCAGAGGAGGAGCCTGGCCTCTTCAGCTGCCAGTCGGATAGTGTTCC”, the binding signal (log2 relative supershift) turned out to be 2.13. With “GATGGACCCTATACGCGGCCGTGCCTGGAGCTTGGAATTCAGGCCAGAAACCACCAGTGGACACCAGCATTCCACACTCACTGCACAGGCTGGGGCTCAAACCAAGGCCCAGGGACAGGAAGGGACAAGCCCCAGCCCCAGCCGGACTCCCAGCCCACACAAACCATCAGGGCTTGTTTCCTGCTCCATGGAAGCCTCAGACATGTTTCATGCCAGTCGGATAGTGTTCC”, the binding signal (log2 relative supershift) was 0.561.

In the case of “GATGGACCCTATACGCGGCAGGGAGGTGTTTGGGGTTTGGACAGCTGCTCCCTCCTTTAGGGCTGACTGTCCCATCAGGAGGGGGTTGTTTCTGTTGCTCAGTGGGGAATCTGCAGGCCTCGACAGGCTCTGAGCTGGGAAACAGGAGTGGCCCTGCCTGTCCTATGACACACTGTGAGTGGAGGGGGCTGTGGCCGGCAGGGACGTAGGTGCCAGTCGGATAGTGTTCC”, the binding signal (log2 relative supershift) was 2.56. Consider “GATGGACCCTATACGCGGCATCAAGGGAAGCAGCCCACTGTGGGCACACTCAGAAAGTATGAGTGAGGGGAGGAGGTGTAGCATGGGGAGAAGAGGCCTGGGGTAGCCCCTGGACAGAAGCCCGCTCCTTTCTGCTCTCTGAGGTGTCCACTGATTCAGCCTGTTGGCCTGGCCAGAACCTGCCCTCTTCATGCCTCGGTTTCCCTGGCTTGCCAGTCGGATAGTGTTCC”, for which the binding signal (log2 relative supershift) worked out at 1.93. For “GATGGACCCTATACGCGGCGCTTGAACTCTGAACCTGGTGGGTTGGTTAAGCCAACAAGGGGAAGGAGTCAGTGGAAGTGGGGTTGGGAAAGGGGGCCTCCATGTGTCTGCACCTGCCTGACACTACCTGCCCCATACCACACCCTCCTGACACTGCCCACCCCTACCCCACCCTCCTGACACTGCCTACCCAATACCCCACCCTCCTGTTGCCAGTCGGATAGTGTTCC”, the binding signal (log2 relative supershift) worked out at 2.08. As for “GATGGACCCTATACGCGGCGCAAAGCTCCAGTACCCTCAGGCCACACCTACTGGAAAAATATATGTCAGCCCCAGAAAATTGTGGGCAAGATGAGGCAAGTCCTGAGCAACACAGGAAACTGCCCTCCTCCTTTTCTGGCCCCGCTTCCACTGTGATGCTAAAGATCGCATCAAGGCTGGTCATCCAATCAGCAGGATGTAAGAGGGTCATGCCAGTCGGATAGTGTTCC”, the binding signal (log2 relative supershift) is 2.17. Take “GATGGACCCTATACGCGGCGATAATTTGGATTTAGGGTAAGGGACAGCGTTGCTCATCTACAGGACCACAAGGGGTTCTGTGCTGCAGGGGCATAAGAAGGAGCATGTGCCATGTGGGGAATGCAGGGAAGCAGGGCAGAGGGACGTAGGAGAGGAAGATTAAGAGCCAAGGGGGAGGGGCAGGCAGGCAGGTCCTTTTCCATCTTTTCATGCCAGTCGGATAGTGTTCC”: the binding signal (log2 relative supershift) was 1.93. For the sequence “GATGGACCCTATACGCGGCTGGGGCTCAGTGTTCTGGGAGAAGTGGGTTCTAGCTCTGCCGCTGGGCCCTGGGTGTGGGCGCCCAATCGTCCGGGAAGCGCCCACAAGCCCAGGCAAGTCCCGACAGCGGTAGCCCGAGCCCAAGCGCTGCGGGCCCGGCGTCCCAGTGACCCCAGTTCCGGGTCCGAGGCACCGCCGGCGGCATCTCCCTGCCAGTCGGATAGTGTTCC”, the binding signal (log2 relative supershift) was found to be 2.35. “GATGGACCCTATACGCGGCTGGTTCTCTCACCCCAGACACACCAGGGCTGATCCAACATATCTGGCTCAACATCACCCACAAGTCTCAACAGGGCCCTGAAAACCACCTCTGACTCCACAACCCACTGTCCCACGCCCTGGGAGGTAGGCTGTGTCTGGGCTTGCTCACGTCTGGGAACAGCAAAGTCTGGCCCAAGCCTGTTCAGCCTGTGCCAGTCGGATAGTGTTCC”: the binding signal (log2 relative supershift) amounted to 1.79.

The values above are taken from PMC12370185.
